Measured values as given in PMC8079276.
Results are given in words; binding and its absence hold for the method and conditions named. Binding seen in cells or lysates may run through a third protein. Here binding means that the protein was enriched with, or labelled near, the bait; the list need not be complete. Where a sequence is shown, tags or fusion partners need not be part of it.

T1: UDP-N-acetylglucosamine-peptide N-acetylglucosaminyltransferase (mouse (endogenous in MEFs)) (UniProt Q8CGY8)
T1 sequence: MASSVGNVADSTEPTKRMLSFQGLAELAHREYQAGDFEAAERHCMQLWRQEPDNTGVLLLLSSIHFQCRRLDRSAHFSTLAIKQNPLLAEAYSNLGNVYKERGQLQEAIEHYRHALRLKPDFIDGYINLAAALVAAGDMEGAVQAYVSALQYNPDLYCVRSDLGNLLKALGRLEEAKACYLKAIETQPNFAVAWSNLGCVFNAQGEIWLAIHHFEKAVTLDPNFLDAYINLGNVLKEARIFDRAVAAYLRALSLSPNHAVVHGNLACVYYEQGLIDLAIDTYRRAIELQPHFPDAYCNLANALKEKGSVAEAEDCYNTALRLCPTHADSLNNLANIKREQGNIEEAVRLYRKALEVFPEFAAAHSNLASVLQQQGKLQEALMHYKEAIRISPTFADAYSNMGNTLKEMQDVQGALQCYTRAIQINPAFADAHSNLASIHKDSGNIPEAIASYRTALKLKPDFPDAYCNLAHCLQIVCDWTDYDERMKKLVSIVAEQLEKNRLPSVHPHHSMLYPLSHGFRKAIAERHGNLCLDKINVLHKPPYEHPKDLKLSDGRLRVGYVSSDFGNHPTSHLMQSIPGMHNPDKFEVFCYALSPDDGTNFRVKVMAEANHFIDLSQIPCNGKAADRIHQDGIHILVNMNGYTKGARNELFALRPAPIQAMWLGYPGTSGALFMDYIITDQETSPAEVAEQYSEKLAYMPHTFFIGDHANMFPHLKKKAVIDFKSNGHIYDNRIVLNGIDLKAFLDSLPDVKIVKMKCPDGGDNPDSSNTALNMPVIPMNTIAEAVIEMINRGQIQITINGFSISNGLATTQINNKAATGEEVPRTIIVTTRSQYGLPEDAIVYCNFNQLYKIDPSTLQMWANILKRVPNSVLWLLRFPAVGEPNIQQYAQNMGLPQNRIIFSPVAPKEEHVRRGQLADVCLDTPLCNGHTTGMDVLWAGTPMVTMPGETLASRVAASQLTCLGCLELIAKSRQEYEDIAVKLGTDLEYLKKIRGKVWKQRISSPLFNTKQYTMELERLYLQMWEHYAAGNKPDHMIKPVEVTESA


Biological target: T1, UDP-N-acetylglucosamine-peptide N-acetylglucosaminyltransferase (mouse (endogenous in MEFs))
Experiment: affinity purification with mass spectrometry; endogenous OGT immunoprecipitated (antibody AL24, protein G magnetic beads, TCL buffer: 50 mM Tris HCl, 150 mM NaCl, pH 7.5, 1% NP-40, 2 mM EDTA) from a 1:1:1 mix of SILAC-labelled lysates of WT, H2O2-treated (2.5 mM, 1.5 h) and OGT-null MEFs, precleared with rabbit IgG; in-gel trypsin digestion, LC-MS/MS; interactor if log2 WT or H2O2/null >=1 in 2 or more replicates

Row | binding | Binder
1 | binds | Ppfibp1 (protein, UniProt Q8C8U0 1-969) MMSDASDMLAAALEQMDGIIAGSKALEYSNGIFDCQSPTSPFMGSLRALHLVEDLRGLLEMMETDEKEGLRCQIPDSTAEVLIEWLQNQMTNGHLPGNGDVYQERLARLENDKESLVLQVSVLTDQVEAQGEKIRDLEFCLEEHREKLNATEEMLQQELLSRTSLETQKLELMAEISNLKLKLTAVEKDRLDYEDRFRDTEGLIQEINDLRLKVNEMDGERLQYEKKLKSTKDELASLKEQLEEKECEVKRLQERLVCKAKGEGIEVLDRDIEVQKMKKAVESLMAANEEKERKIEDLRQCLSRYRKMQDPAVLAQGQDSECEGLFHSSSISTLLDAQGFSDLERSTSSTPGMGSPSRDLLHTSAPEEFHTSVLQASIPSLLPPSVDVDTCEKPKLPTKPETSFEEGDGRAILGAAAEVSLSDGVSTSSLQKSSSLGNLKKEASDGTDKAPTDSRTFGTLPPKVPGHEASVDDNPFGTRKARSSFGRGFFKIKSGKRTASAPNLAETEKETAEHLNLAGTSRSKGSQGTSPFPMSPPSPDSRKKSRGIMRLFGKLRRSQSTTFNPDDMSEPEFKRGGTRATAGPRLGWSRDLGQSNSDLDMPFAKWTKEQVCSWLAEQGLGSYLSSGKHWIISGQTLLQASQQDLEKELGIKHSLHRKKLQLALQALGSEEETNYGKLDFNWVTRWLDDIGLPQYKTQFDEGRVDGRMLHYMTVDDLLSLKVVSVLHHLSIKRAIQVLRINNFEPNCLRRRPSDENSITPSEVQQWTNHRVMEWLRSVDLAEYAPNLRGSGVHGGLMVLEPRFNVETMAQLLNIPPNKTLLRRHLATHFNLLIGAEAQHQKRDAMELPDYVLLTATAKVKPKKLTFSNFGNLRKKKHEDGEEYVCPMELGQASGSSQKGFRPGLDMRLYEEDDLDRLEQMEDSEGTVRQIGAFSEGINNLTHMLKEDDMFKDFAARSPSASITDEDSNV
2 | binds | Zfp281 (protein, UniProt Q99LI5 1-893) MKIGSGFLSGGGGPSSSGGSGSGGSSGSASGGSGGGRRAEMEPTFPQSMVMFNHRLPPVTSFTRPAGTAAPPPQCVLSSSTSAAPAAEPPPPPAPDMTFKKEPAASAAAFPSQRTSWGFLQSLVSIKQEKPADPEEQPSHHHHHHHHYGGLFAGAEERSPGLGGGEGGSHGVIQDLSLLHQHAQQQPAQHHRDVLLSSGSRTDEHGNQEPKQDANVKKAKRPKPESQGIKAKRKPSASSKPLVGEGEGAVLSPSQKPHICDHCSAAFRSSYHLRRHVLIHTGERPFQCSQCSMGFIQKYLLQRHEKIHSREKPFGCDQCSMKFIQKYHMERHKRTHSGEKPYKCDTCQQYFSRTDRLLKHRRTCGEAIAKGAASAEPGSSNHNSMGNLAVLSQGNTSSSRRKSKSKSIAIENKEHKTGKTNESQMSNNINMQSYSVEMPTVSTSGSIIGTGIDELQKRVPKLIFKKGSRKNADKSYLNFVSPLPDVVGQKSLSGKPGGSLGIVSNNSVETISLLQSTSGKQGPISSNYDDAMQFSKKRRYLPTASSNSAFSINVGHMVSQQSVIQSAGVSVLDNEAPLSLIDSSALNAEIKSCHDKSGIPDEVLQSILDQYSGKSETQKEDPFNLTEPRVDLHTSGEHSELVQEENLSPGTQTPSNDKTSMLQEYSKYLQQAFEKSTNAGFTLGHGFQFVSLSSPLHNHTLFPEKQIYTTSPLECGFGQSVTSVLPSSLPKPPFGMLFGSQPGLYLSALDATHQQLTPSQELDDLIDSQKNLETSSAFQSSSQKLTSQKEQQKNLESSTSFQIPSQELASQIDPQKDIEPRTTYQIENFAQAFGSQFKSGSRVPMTFITNSNGEVDHRVRTSVSDFSGYTNMMSDVSEPCSTRVKTPTSQSYR
